These are yes or no findings as the source states them, for the method shown. Binding seen in cells or lysates may run through a third protein.

Amino acid sequences for entries named in this document (tags omitted). Residues count along the entry.
UniProt Q15796, residues 2-467: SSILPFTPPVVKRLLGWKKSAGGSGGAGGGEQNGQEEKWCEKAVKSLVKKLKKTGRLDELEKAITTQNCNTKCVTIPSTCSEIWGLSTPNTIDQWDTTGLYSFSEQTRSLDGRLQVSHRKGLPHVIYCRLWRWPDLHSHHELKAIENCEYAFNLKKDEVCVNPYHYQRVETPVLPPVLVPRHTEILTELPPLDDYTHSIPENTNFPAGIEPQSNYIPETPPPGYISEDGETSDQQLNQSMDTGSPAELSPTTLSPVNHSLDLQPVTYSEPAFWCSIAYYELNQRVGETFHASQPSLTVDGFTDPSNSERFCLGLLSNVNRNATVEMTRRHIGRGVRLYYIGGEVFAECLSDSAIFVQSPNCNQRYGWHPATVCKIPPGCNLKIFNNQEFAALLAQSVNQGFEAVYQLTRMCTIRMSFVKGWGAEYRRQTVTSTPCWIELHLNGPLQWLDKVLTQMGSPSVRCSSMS
UniProt Q9NXV2: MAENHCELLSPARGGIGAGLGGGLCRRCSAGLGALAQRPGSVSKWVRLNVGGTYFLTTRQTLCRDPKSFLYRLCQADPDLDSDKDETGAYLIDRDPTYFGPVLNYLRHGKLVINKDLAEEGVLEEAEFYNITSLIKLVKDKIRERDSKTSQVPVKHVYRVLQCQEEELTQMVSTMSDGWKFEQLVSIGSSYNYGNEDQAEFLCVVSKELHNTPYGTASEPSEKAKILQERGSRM

This experiment has as its target TAP-HA-Smad2 (human) (UniProt Q15796). The experiment in a line: pull-down.

In the case of HA-KCTD5 (from UniProt Q9NXV2 1-234), the binding entry was “no binding”.

The values above are taken from article doi:10.1101/2023.09.20.558662 (bioRxiv, 2023).
